Results published in the supplement of paper PMC10060354, “Discovery of a small molecule ligand of FRS2 that inhibits invasion and tumor growth” (Cellular Oncology, 2022).
Where “and” joins values, the source holds several entries; their conditions need not be identical. Identical values can stand only once. Repeats are few or missing, and single values can be far off.

Chains of the proteins cited; added tags and fusions are not shown. Lines headed by an entry give the natural chain unless they say otherwise; changes in a name come on top.
UniProt O95059: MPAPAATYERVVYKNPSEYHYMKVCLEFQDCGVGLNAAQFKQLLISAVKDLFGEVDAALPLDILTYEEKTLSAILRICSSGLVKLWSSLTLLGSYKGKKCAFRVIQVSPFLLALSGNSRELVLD
UniProt Q8WWZ3: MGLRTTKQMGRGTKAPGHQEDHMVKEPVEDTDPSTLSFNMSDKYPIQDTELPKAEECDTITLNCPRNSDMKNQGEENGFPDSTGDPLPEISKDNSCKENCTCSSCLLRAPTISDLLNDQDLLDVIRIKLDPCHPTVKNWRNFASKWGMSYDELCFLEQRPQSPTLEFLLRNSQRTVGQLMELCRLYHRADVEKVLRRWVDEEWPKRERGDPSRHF
UniProt Q8NBL1: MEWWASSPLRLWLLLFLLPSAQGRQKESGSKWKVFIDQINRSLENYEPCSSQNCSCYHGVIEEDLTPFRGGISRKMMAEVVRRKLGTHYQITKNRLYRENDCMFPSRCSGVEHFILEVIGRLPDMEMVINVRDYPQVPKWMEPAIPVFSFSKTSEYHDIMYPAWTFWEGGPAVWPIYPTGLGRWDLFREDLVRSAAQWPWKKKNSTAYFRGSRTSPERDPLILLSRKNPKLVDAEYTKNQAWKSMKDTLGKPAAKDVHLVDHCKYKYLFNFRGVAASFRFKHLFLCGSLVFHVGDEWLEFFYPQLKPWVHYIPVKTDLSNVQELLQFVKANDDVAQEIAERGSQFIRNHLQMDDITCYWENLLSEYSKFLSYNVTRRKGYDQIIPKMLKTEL
UniProt O75122: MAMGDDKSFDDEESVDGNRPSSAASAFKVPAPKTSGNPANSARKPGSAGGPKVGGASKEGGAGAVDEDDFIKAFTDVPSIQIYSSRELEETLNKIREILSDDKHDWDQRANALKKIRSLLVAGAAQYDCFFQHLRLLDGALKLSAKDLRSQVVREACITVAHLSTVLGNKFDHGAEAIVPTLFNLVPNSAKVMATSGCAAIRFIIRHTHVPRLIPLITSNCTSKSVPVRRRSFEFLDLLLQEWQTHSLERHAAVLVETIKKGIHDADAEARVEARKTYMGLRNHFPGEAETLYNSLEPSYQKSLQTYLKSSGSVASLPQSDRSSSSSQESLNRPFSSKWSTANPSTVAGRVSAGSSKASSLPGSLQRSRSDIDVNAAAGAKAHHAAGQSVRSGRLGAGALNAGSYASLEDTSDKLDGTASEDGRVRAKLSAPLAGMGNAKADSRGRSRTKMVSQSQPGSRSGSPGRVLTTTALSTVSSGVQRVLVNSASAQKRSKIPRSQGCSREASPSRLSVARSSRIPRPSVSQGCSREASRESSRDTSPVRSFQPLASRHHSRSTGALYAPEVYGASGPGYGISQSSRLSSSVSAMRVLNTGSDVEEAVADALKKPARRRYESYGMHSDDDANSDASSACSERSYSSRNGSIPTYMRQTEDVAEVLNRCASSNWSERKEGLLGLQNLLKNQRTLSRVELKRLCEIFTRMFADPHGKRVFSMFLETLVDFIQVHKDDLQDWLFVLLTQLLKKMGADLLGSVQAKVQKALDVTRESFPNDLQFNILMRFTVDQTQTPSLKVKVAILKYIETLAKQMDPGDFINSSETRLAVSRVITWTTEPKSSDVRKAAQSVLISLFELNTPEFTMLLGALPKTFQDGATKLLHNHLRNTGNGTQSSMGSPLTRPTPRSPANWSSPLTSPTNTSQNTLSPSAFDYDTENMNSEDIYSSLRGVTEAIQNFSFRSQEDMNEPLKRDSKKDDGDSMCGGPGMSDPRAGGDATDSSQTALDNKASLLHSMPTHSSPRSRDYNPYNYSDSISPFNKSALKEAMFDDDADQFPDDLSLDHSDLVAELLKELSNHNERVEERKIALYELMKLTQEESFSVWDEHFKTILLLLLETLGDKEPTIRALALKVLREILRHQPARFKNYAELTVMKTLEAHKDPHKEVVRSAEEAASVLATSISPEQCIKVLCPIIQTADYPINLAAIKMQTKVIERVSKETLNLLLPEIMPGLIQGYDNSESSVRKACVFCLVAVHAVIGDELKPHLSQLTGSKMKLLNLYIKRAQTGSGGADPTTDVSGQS
UniProt Q9Y2D5: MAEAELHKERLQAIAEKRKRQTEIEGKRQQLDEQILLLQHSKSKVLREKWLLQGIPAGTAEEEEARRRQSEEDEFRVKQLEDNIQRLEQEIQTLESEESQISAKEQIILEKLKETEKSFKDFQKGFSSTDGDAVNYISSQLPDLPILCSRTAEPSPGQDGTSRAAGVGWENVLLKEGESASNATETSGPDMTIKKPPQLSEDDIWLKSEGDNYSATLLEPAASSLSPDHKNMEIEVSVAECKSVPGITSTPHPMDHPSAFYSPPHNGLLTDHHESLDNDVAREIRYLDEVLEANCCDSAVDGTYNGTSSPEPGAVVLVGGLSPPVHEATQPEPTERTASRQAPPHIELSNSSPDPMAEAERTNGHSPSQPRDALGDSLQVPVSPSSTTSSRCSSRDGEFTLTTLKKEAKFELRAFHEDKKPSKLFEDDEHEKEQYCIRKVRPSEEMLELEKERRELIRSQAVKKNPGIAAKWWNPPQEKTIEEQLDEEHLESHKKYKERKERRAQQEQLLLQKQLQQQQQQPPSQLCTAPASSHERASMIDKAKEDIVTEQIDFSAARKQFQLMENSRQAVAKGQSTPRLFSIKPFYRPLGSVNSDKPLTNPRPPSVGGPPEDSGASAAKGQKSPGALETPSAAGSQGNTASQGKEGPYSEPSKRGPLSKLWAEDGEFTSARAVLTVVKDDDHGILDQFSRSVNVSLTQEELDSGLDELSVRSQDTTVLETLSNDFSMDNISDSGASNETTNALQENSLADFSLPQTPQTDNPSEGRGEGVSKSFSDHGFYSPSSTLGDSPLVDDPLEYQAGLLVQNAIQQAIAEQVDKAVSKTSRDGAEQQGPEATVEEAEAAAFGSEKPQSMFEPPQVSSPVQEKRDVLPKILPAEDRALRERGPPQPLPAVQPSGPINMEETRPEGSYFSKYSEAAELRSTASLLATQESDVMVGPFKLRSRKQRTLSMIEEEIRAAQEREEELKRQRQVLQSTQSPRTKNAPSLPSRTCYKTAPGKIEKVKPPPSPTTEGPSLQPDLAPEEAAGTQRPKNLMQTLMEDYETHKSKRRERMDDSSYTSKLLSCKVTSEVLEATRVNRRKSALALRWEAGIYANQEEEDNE
UniProt Q7Z4S6: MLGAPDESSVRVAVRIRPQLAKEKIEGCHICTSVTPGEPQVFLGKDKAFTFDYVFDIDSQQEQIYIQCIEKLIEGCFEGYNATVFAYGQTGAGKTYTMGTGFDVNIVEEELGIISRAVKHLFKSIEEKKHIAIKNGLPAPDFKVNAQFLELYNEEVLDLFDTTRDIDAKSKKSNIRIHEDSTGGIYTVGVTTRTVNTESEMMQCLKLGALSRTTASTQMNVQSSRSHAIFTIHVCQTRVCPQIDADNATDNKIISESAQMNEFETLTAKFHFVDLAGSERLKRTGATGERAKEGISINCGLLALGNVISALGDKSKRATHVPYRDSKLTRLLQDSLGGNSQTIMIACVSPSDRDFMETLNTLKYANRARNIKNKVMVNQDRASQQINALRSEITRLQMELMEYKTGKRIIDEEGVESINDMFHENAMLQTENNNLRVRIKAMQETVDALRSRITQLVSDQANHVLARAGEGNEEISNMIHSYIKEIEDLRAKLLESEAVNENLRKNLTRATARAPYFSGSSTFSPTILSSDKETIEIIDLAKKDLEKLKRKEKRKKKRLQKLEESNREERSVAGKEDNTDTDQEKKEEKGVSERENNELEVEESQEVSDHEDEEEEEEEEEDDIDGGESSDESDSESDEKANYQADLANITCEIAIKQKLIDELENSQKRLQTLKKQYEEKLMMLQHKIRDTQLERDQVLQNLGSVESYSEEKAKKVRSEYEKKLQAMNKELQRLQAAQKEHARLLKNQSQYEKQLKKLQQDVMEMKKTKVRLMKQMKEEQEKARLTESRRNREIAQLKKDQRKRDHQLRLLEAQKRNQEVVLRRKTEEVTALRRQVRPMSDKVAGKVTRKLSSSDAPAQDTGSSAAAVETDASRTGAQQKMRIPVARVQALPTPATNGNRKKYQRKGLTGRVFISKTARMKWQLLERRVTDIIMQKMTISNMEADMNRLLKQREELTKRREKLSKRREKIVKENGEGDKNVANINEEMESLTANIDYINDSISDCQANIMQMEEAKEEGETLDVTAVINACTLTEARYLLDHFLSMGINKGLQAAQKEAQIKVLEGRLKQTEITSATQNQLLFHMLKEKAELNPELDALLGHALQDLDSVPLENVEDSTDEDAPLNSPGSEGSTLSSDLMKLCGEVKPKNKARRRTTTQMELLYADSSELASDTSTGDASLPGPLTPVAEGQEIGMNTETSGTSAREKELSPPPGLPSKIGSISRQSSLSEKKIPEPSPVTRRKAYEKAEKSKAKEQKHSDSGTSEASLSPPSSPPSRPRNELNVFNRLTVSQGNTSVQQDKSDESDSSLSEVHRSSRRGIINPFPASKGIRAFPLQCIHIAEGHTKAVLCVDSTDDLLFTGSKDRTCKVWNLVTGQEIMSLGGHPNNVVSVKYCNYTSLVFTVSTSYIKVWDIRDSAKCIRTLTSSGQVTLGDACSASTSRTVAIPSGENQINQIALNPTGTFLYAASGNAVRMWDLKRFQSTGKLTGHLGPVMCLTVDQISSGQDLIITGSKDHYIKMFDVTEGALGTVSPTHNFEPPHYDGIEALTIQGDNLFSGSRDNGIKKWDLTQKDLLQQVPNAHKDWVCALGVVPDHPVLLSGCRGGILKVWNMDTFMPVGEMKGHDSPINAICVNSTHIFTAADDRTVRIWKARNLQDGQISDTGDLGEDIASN
UniProt Q7Z6J8: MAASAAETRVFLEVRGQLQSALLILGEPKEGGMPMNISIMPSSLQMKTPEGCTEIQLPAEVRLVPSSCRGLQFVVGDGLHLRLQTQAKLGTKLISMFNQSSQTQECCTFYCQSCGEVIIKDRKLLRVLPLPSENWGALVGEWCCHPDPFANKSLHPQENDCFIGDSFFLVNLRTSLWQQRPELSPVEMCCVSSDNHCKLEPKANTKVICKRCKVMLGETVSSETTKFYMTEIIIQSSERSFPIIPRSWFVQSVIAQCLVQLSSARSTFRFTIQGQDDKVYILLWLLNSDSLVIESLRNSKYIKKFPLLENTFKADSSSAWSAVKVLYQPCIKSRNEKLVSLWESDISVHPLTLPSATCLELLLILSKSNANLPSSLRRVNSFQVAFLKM
UniProt Q9UDX5: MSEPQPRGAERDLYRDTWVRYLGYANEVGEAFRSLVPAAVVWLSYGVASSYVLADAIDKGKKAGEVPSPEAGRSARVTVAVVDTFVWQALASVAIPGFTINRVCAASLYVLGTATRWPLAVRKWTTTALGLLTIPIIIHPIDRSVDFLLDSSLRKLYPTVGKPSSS
UniProt Q7L8L6: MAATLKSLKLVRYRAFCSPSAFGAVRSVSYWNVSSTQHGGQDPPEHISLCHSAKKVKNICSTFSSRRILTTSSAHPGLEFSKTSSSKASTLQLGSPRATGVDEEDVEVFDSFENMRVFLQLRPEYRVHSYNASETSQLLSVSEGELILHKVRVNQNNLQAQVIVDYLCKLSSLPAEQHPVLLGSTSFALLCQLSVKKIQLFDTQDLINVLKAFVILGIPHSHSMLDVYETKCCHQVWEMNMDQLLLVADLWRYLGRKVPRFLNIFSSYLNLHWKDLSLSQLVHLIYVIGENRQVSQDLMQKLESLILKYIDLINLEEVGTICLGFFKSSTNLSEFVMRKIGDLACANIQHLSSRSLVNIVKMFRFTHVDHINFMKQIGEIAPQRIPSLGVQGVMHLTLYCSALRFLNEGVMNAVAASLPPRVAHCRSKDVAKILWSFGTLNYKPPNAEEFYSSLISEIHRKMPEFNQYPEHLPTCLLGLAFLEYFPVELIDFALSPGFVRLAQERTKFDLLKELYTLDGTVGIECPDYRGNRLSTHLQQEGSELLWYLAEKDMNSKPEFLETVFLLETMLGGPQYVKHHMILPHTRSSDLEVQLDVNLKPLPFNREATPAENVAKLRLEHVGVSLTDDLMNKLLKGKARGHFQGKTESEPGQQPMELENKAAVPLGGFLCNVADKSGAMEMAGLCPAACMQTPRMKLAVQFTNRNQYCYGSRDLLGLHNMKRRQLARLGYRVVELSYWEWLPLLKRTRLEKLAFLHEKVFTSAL
UniProt Q13510, whole entry: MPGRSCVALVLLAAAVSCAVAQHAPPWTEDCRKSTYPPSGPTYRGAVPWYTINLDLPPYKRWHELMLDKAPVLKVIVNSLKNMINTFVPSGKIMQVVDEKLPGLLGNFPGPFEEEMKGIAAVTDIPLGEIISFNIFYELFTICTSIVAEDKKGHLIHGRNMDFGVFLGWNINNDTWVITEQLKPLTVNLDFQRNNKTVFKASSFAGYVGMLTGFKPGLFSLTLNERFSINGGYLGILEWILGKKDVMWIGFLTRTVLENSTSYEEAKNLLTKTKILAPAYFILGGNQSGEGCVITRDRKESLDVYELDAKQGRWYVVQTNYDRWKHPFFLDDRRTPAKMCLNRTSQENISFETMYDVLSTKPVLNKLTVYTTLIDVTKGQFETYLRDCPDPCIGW

Compound: [O-][N+](C(C1=C(C(O)=C2)NC(C(C=C3)=CC=C3Cl)C4C1C=CC4)=C2Cl)=O
Assay: melting temperature shift (compound 7 minus DMSO); higher = compound stabilises the protein
Conditions: 10 µM
Method: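 Thermal proteome profiling (TMT mass spectrometry) in intact DAOY medulloblastoma cells or DAOY lysates treated with 10 µM compound 7 or DMSO, heated at 10 temperatures from 40.5 to 73.8 °C for 3 min. Melting curves were fitted with the Bioconductor TPP package, and the melting point difference between compound and vehicle is reported per protein (single curve per condition).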

[1] = system: DAOY cell lysate, treatment time: 20 min, 4 °C
[2] = system: intact DAOY cells, treatment time: 90 min, 37 °C

Target | melting temperature shift [1] | melting temperature shift [2] [°C]
UniProt O95059 | 2.05 °C | 0.299
SMYD5 (UniProt Q6GMV2) | 0.638 °C | 0.124
UniProt O14647 | 0.535 °C | 
SPATS2 (UniProt Q86XZ4) | 0.616 °C | 0.759
WDSUB1 (UniProt Q8N9V3) | -0.321 °C | 
USP34 (UniProt Q70CQ2) | 0.121 °C | -3.85
PTTG1 (UniProt O95997) | -3.2 °C | 
LTN1 (UniProt O94822) | 0.138 °C | -0.276
UniProt Q8WWZ3 | -2.2 °C | 
A0AVF1 | 0.614 °C | 
EXOSC5 (UniProt Q9NQT4) | -0.53 °C | 
PVR (UniProt P15151) | 3.6 °C | 
UniProt Q9H0V1 |  | -0.938
UniProt Q9ULW3 | 0.0255 °C | 
PEX14 (UniProt O75381) | 2.63 °C | 0.0352
FOXRED1 (UniProt Q96CU9) | 1.78 °C | -2.28
POGLUT1 (UniProt Q8NBL1) | 0.0737 °C | 1.4
GRB2 (UniProt P62993) | -0.879 °C | -0.206
LZTFL1 (UniProt Q9NQ48) | -0.00968 °C | 1.6
SLC33A1 (UniProt O00400) | 0.657 °C | -2.14
CAPZA1 (UniProt P52907) | -1.07 °C | 0.604
DSG2 (UniProt Q14126) | 0.634 °C | 1.45

Target | melting temperature shift [1] | melting temperature shift [2] [°C]
CLASP2 (UniProt O75122) | -1.57 °C | 0.263
SND1 (UniProt Q7KZF4) | -0.228 °C | 0.0654
USP4 (UniProt Q13107) | -0.516 °C | 
DAPK3 (UniProt O43293) |  | 0.494
MRPL14 (UniProt Q6P1L8) | 0.262 °C | -1.89
GNPAT (UniProt O15228) | 0.676 °C | 0.635
GARS (UniProt P41250) | -0.326 °C | 0.795
SF3B1 (UniProt O75533) | -0.191 °C | 0.142
SMC5 (UniProt Q8IY18) | -0.227 °C | 0.686
SUOX (UniProt P51687) | -2.07 °C | 
FAM91A1 (UniProt Q658Y4) | -0.391 °C | 0.416
PSMC2 (UniProt P35998) | -0.477 °C | -0.824
UniProt Q96D31 |  | 2.02
PTDSS1 (UniProt P48651) | -0.0311 °C | 0.392
NAT10 (UniProt Q9H0A0) | 1.02 °C | 0.348
PCF11 (UniProt O94913) | -2.03 °C | 
RFC5 (UniProt P40937) | -0.421 °C | -1.81
SERPINB6 (UniProt P35237) | -1.08 °C | -0.377
ZBTB8OS (UniProt Q8IWT0) | -0.759 °C | -0.38
UniProt P17612 | -0.143 °C | -0.056
ZFYVE16 (UniProt Q7Z3T8) | -0.0443 °C | 2.35
BRD8 (UniProt Q9H0E9) | -0.515 °C | 1.35

Target | melting temperature shift [1] | melting temperature shift [2] [°C]
HSD17B12 (UniProt Q53GQ0) | 0.565 °C | -0.0317
RPL29 (UniProt P47914) |  | -0.769
UniProt Q96L73 |  | 0.664
DDA1 (UniProt Q9BW61) | -1.42 °C | -4.19
CHPF (UniProt Q8IZ52) | -2.25 °C | 0.101
DRG2 (UniProt P55039) | -0.162 °C | 0.492
PSIP1 (UniProt O75475) | 0.783 °C | -1.3
UniProt Q9Y3A3 | 0.146 °C | 0.942
Q8IXS6 (UniProt Q9Y2D5) | 0.73 °C and -3.7 °C | 
PSMC3 (UniProt P17980) | -0.607 °C | -1.15
CDS2 (UniProt O95674) | 3.43 °C | -1.39
SMARCC2 (UniProt Q8TAQ2) | 0.751 °C | -0.429
TIMM17A (UniProt Q99595) | 1.36 °C | -2.85
MVK (UniProt Q03426) | -0.373 °C | -0.106
ABHD10 (UniProt Q9NUJ1) | 0.572 °C | -0.716
MRPL1 (UniProt Q9BYD6) | 0.583 °C | -0.591
UniProt P0DPI2 |  | -0.21
UniProt Q9UBF8 | -1.23 °C | -1.81
KIF21A (UniProt Q7Z4S6) | -1.08 °C | 1.38
UniProt P62314 | 0.319 °C | 1.9
ERCC2 (UniProt P18074) | -1.67 °C | 0.496
WASL (UniProt O00401) | -0.273 °C | -0.478

Target | melting temperature shift [1] | melting temperature shift [2] [°C]
UniProt P26378 |  | -1.34
GTF3C3 (UniProt Q9Y5Q9) | 2.07 °C | -2.05
UniProt Q9UN81 | 0.321 °C | 2.74
CAMKMT (UniProt Q7Z624) | -0.0348 °C | 
UniProt Q8NF91 | -1.91 °C | 
LMAN2L (UniProt Q9H0V9) | 1 °C | -0.957
UniProt Q9ULC8 |  | 0.237
UniProt O94885 | -5.53 °C | 
R3HCC1L (UniProt Q7Z5L2) | 0.767 °C | 
CNN2 (UniProt Q99439) | -0.496 °C | -0.356
CXORF56 (UniProt Q9H5V9) | -0.207 °C | 0.425
UniProt Q7Z6J8 | -0.607 °C | -0.249
UniProt Q9BWJ5 | -0.174 °C | 0.558
UniProt Q9UDX5 | -4.52 °C | -2.78
FASTKD5 (UniProt Q7L8L6) | -0.952 °C | 
UniProt A8MTL0 | 1.58 °C | 
PROSC (UniProt O94903) | 0.33 °C | -0.571
C2ORF47 (UniProt Q8WWC4) | 1.51 °C | -0.9
ASAH1 (UniProt Q13510) | 1.14 °C | 
PUDP (UniProt Q08623) | -0.0784 °C | 
